This is an account of results in article PMC4766304.

Sequences of proteins named here, by UniProt entry; tags and fusion partners are left off. Residues count along the entry.
UniProt Q01097, residues 27-1482: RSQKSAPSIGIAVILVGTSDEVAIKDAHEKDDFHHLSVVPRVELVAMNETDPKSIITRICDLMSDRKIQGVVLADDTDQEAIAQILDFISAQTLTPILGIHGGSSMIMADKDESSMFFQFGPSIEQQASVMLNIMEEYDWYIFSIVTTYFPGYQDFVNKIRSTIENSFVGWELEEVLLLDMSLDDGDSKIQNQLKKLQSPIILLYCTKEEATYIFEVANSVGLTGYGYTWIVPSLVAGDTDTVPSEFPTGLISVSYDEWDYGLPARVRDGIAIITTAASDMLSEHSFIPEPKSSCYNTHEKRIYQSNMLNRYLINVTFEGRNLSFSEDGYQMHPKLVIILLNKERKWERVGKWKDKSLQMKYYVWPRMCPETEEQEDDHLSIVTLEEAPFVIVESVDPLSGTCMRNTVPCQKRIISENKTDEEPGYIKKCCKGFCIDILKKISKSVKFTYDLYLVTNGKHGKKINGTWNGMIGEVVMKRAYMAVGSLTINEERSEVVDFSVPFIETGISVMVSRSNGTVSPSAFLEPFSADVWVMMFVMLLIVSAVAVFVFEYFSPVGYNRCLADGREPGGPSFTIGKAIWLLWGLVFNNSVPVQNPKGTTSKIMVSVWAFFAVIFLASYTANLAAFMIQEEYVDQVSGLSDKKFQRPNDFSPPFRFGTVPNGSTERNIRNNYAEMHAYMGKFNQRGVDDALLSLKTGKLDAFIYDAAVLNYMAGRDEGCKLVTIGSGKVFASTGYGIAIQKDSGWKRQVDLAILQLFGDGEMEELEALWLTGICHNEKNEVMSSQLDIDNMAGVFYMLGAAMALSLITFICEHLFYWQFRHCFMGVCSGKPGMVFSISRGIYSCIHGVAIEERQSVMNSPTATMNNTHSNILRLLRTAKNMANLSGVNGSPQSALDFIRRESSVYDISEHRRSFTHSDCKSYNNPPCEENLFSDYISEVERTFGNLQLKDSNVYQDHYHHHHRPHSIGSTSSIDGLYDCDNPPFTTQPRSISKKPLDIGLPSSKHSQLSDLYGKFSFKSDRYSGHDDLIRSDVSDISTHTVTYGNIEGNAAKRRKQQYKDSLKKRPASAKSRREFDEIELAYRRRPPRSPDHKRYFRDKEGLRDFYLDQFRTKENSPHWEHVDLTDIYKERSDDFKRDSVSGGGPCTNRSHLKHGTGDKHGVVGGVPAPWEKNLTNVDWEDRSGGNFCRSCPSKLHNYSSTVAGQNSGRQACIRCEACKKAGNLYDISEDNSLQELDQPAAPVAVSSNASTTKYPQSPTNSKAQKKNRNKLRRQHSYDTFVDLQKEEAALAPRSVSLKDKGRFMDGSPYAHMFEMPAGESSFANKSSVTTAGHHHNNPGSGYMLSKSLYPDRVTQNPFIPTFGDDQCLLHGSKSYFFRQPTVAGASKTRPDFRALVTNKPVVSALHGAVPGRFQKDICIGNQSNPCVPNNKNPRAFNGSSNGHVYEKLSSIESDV

The target of test [1] is T1, serine racemase (mouse (endogenous in primary cortical cultures from C57BL/6 mice)) (UniProt Q9QZX7).
T1 sequence: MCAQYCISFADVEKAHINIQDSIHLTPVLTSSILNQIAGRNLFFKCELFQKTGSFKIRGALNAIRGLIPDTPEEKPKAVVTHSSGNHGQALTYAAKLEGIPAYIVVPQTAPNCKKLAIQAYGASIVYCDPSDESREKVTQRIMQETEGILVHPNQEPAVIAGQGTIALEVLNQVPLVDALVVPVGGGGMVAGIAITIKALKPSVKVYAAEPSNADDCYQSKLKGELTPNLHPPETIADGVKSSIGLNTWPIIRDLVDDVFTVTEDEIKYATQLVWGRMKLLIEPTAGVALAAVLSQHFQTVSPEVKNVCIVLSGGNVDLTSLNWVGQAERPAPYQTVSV
Kind of test: co-IP; 250 μg cortical neuronal lysate (lysis buffer 150 mM NaCl, 1 mM EDTA, 100 mM Tris-HCl, 1% Triton X-100, 1% sodium deoxycholate, 1% SDS, pH 7.4) with 2 μg α-SR, α-NR1 or α-PSD-95 antibody or normal IgG, 4°C, protein A or G agarose, Western blot; also from cultures treated 24 h with vehicle, D-serine (50 μM), D-serine + AP5, D-serine + 7-CK, glycine + lithium. (In western blotting, separated proteins are transferred to a membrane and probed.)

The target in test [2] is NR1 subunit of NMDARs (mouse (endogenous in primary cortical cultures from C57BL/6 mice)) (UniProt P35438). Described as above.

Results are given in words; binding and its absence hold for the method and conditions named. Binding seen in cells or lysates may run through a third protein. Some results given as binding are weak or reduced against the parent protein; the word gives no strength.

On to “NR2B (from UniProt Q01097 27-1482) (receptor)”, for which the binding result in test [1] is on record as “binds”.

In the case of “NR2A (from UniProt P35436 23-1464) (receptor)”, the binding entry in test [1] is “binds”.

B1: serine racemase (enzyme, UniProt Q9QZX7 1-339)
chain: T1 sequence
B1: in test [2], the binding result is listed as “binds”.
